Data as given in patent US11452705B2, “Oral drug delivery composition containing oxaliplatin and method for preparing same” (ICURE BNP CO., LTD., priority 2017, dated 2022).
Some entries share one result that the patent states for a list of compounds.

Assay: Drug release (dissolution) test, USP type 1 apparatus (basket)
Assay type: physicochemical
Details: pH 6.8, within 15 min
Description: Dissolution tests were performed in 500 mL of medium containint 0.1 N HCl solution (pH 1.2) or phosphate buffer (pH 6.8) at 37±0.2° C., using the USP type 1 apparatus (basket) rotating at 100 rpm.
Each capsule was subjected to a dissolution test, and 1-mL samples were withdrawn at 15, 30, 45, 60, 90, and 120 min. After filtration, the amount of drug released was quantified by the HPLC using a UV detector, as in Example 7, and the results are shown in FIG. 6.

## O=c1[nH]cc(F)c(=O)[nH]1 [Composition 5-FU, 5-fluorouracil]
  Drug released from the nanoemulsion: at least 90%
